From the supplement of paper PMC4635364
Where a name gives a salt, the structure may show the parent alone. This is one part of the list. Single values are uncertain here, since repeats match poorly.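 ReNCell VM, a human fetal ventral-midbrain neural progenitor line, was differentiated without mitogens. Blinded raters scored images stained for doublecortin (early neurons) or tyrosine hydroxylase (dopaminergic neurons) against untreated wells (0 = no change). Scores were averaged across repeats and both raters, and compounds averaging 2 or more were selected as hits for retesting.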

Legend:
ReNCell VM [1] = assay: neuronal differentiation score (DCX+ cell fraction vs untreated, manual image score) (score (-3 to 3)); higher = more neuronal differentiation; settings: 2 uM, 2 weeks
ReNCell VM [2] = assay: dopaminergic neuron differentiation score (TH+ cell fraction vs untreated, manual image score) (score (0 to 3)); higher = more TH+ dopaminergic neuron differentiation; settings: 2 uM, 4 weeks, BDNF 10 ng/ml + GDNF 10 ng/ml

| Structure (SMILES) | neuronal differentiation score (ReNCell VM [1]; library: LOPAC) | neuronal differentiation score (ReNCell VM [1]; library: Phytochemical) | neuronal differentiation score (ReNCell VM [1]; library: Prestwick) | neuronal differentiation score (ReNCell VM [1]; library: Tocriscreen) | dopaminergic neuron differentiation score (ReNCell VM [2]; library: LOPAC) | dopaminergic neuron differentiation score (ReNCell VM [2]; library: Phytochemical) | dopaminergic neuron differentiation score (ReNCell VM [2]; library: Prestwick) | dopaminergic neuron differentiation score (ReNCell VM [2]; library: Tocriscreen) |
| --- | --- | --- | --- | --- | --- | --- | --- | --- |
| CCOC(=O)C1=C[C@]2(CC)CCCN3CCc4c(n1c1ccccc41)[C@@H]32 [Vinpocetine] | inactive: 0 | inactive: 1 | inactive: 0 | inactive: 0 | inactive: 0 | inactive: 0 | inactive: 0 | inactive: 0 |
| Cc1c(OCC(F)(F)F)ccnc1C[S+]([O-])c1nc2ccccc2[nH]1 (centres undefined) [Lansoprazole] | inactive: 0 |  | inactive: 0 | inactive: 0 | inactive: 0 |  | inactive: 0 | inactive: 0 |
| CCCOc1ccccc1-c1nc2[nH]nnc2c(=O)[nH]1 [Zaprinast] | inactive: 0 |  | inactive: 0 | inactive: 0 | active: 3 |  | inactive: 0 | inactive: 0 |
| O=C(NCC1CCCCN1)c1cc(OCC(F)(F)F)ccc1OCC(F)(F)F (centres undefined) [Flecainide acetate] | inactive: -2 |  | inactive: 0 | inactive: 0 | inactive: 0 |  | inactive: 0 | inactive: 0 |
| COCCOC(=O)C1=C(C)NC(C)=C(C(=O)OC/C=C/c2ccccc2)C1c1cccc([N+](=O)[O-])c1 (centres undefined) [Cilnidipine] | inactive: 0 |  | inactive: 0 | inactive: 0 | inactive: 0 |  | inactive: 0 | inactive: 0 |
| CC[C@@H]1C(=O)OC[C@@H]1Cc1cncn1C [Pilocarpine nitrate] | inactive: 1 | inactive: 0 | inactive: 0 |  | inactive: 0 | inactive: 0 | inactive: 0 |  |
| CS(=O)(=O)Nc1ccc([N+](=O)[O-])cc1Oc1ccccc1 [Nimesulide] | inactive: 0 |  | inactive: 0 | inactive: 0 | inactive: 0 |  | inactive: 0 | inactive: 0 |
| COC(=O)[C@H]1[C@H]2C[C@@H]3c4[nH]c5cc(OC)ccc5c4CCN3C[C@H]2C[C@@H](OC(=O)c2cc(OC)c(OC)c(OC)c2)[C@@H]1OC [Reserpine] | inactive: 0 | inactive: 0 | inactive: 0 | inactive: 0 | inactive: 0 | inactive: 0 | inactive: 0 | inactive: 0 |
| O=c1cc(-c2ccc(O)cc2)oc2cc(O)cc(O)c12 [Apigenin] | inactive: 0 | inactive: 0 |  | inactive: 0 | inactive: 0 | inactive: 0 |  | inactive: 0 |
| Cn1c(=O)c2c(ncn2C)n(C)c1=O [Caffeine] | inactive: 0 | inactive: 0 | inactive: 0 |  | inactive: 1 | inactive: 0 | inactive: 1 |  |
| Cc1cc(C(C)(C)C)c(O)c(C)c1CC1=NCCN1 [Oxymetazoline hydrochloride] | inactive: 0 |  | inactive: 0 | inactive: 0 | inactive: 0 |  | inactive: 0 | inactive: 0 |
| CC1=Nc2ccc(Cl)cc2S(=O)(=O)N1 [Diazoxide] | inactive: 0 |  | inactive: 0 | inactive: 0 | inactive: 0 |  | inactive: 0 | inactive: 0 |
| CN(C)CCCN1c2ccccc2CCc2ccc(Cl)cc21 [Clomipramine hydrochloride] | inactive: 0 |  | inactive: 0 | inactive: 0 | inactive: 0 |  | inactive: 0 | inactive: 0 |
| CC1=C(CC(=O)O)c2cc(F)ccc2/C1=C\c1ccc([S+](C)[O-])cc1 (centres undefined) [Sulindac] | inactive: 1 |  | inactive: 0 | inactive: 0 | inactive: 0 |  | inactive: 0 | active: 3 |
| COC(=O)C1=C(C)NC(C)=C(C(=O)OC)C1c1ccccc1[N+](=O)[O-] [Nifedipine] | inactive: 0 |  | inactive: 0 | inactive: 0 | inactive: 0 |  | inactive: 0 | inactive: 0 |
| O=C(c1ccc(OCCN2CCCCC2)cc1)c1c(-c2ccc(O)cc2)sc2cc(O)ccc12 [Raloxifene hydrochloride] | active: 2 |  | inactive: 0 | inactive: 0 | inactive: 0 |  | inactive: 0 | inactive: 0 |
| COc1cc([C@@H]2c3cc4c(cc3[C@@H](O[C@@H]3O[C@@H]5CO[C@@H](C)O[C@H]5[C@H](O)[C@H]3O)[C@H]3COC(=O)[C@H]23)OCO4)cc(OC)c1O [Etoposide] | inactive: 0 | inactive: 0 | inactive: 0 | inactive: 0 | inactive: 0 | inactive: 0 | inactive: 0 | inactive: 0 |
| Cc1oncc1C(=O)Nc1ccc(C(F)(F)F)cc1 [Leflunomide] | inactive: 0 |  | active: 2 | inactive: 0 | inactive: 0 |  | inactive: 0 | inactive: 0 |

Three structures from above, ordered by number of heavy atoms, ascending:

| Structure (SMILES) | neuronal differentiation score (ReNCell VM [1]; library: LOPAC) | neuronal differentiation score (ReNCell VM [1]; library: Phytochemical) | neuronal differentiation score (ReNCell VM [1]; library: Prestwick) | neuronal differentiation score (ReNCell VM [1]; library: Tocriscreen) | dopaminergic neuron differentiation score (ReNCell VM [2]; library: LOPAC) | dopaminergic neuron differentiation score (ReNCell VM [2]; library: Phytochemical) | dopaminergic neuron differentiation score (ReNCell VM [2]; library: Prestwick) | dopaminergic neuron differentiation score (ReNCell VM [2]; library: Tocriscreen) |
| --- | --- | --- | --- | --- | --- | --- | --- | --- |
| O=c1cc(-c2ccc(O)cc2)oc2cc(O)cc(O)c12 [Apigenin] | inactive: 0 | inactive: 0 |  | inactive: 0 | inactive: 0 | inactive: 0 |  | inactive: 0 |
| CS(=O)(=O)Nc1ccc([N+](=O)[O-])cc1Oc1ccccc1 [Nimesulide] | inactive: 0 |  | inactive: 0 | inactive: 0 | inactive: 0 |  | inactive: 0 | inactive: 0 |
| COC(=O)[C@H]1[C@H]2C[C@@H]3c4[nH]c5cc(OC)ccc5c4CCN3C[C@H]2C[C@@H](OC(=O)c2cc(OC)c(OC)c(OC)c2)[C@@H]1OC [Reserpine] | inactive: 0 | inactive: 0 | inactive: 0 | inactive: 0 | inactive: 0 | inactive: 0 | inactive: 0 | inactive: 0 |
